Results as given in patent US20070178531A1 (BIOCHECK, published 2007).
No constants are given. Whether binding was seen depends on the method and setting. Some binding calls cover weakened binding; strength is not graded here. For some assays here: Tags and fused reporters may be left off the sequences shown.

What was measured:
human Id3 protein = target: T1, human Id3 protein (human, UniProt Q02535 1-119 at identity 1.00)); assay: Western blot on Hela whole cell extract
T1 chain: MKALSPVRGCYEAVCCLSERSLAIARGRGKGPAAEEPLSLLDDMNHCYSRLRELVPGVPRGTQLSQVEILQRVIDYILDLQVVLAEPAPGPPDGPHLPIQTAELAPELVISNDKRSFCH

Human Id3: Histidine = target: T2, Human Id3: Histidine (human, UniProt Q02535 1-119 at identity 1.00)); assay: ELISA on coated wells
T2 construct: Fusion protein made in E. coli from vector pGW07; also called h-Id3: His; Human Id3 (coated wells); not shown: His tag
T2 chain: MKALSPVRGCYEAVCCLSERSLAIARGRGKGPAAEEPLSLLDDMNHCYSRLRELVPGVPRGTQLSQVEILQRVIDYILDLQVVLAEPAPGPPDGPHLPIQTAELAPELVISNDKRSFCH

Mouse Id3: Histidine = target: T3, Mouse Id3: Histidine (mouse, UniProt P41133 1-119); assay: ELISA on coated wells
T3 construct: Fusion protein made in E. coli from vector pGW07; also called m-Id3: His; Mouse Id3 (coated wells); not shown: His tag
T3 sequence: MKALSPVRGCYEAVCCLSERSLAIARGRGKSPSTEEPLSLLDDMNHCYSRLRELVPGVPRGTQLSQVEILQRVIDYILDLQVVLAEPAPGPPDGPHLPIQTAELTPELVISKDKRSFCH

mouse Id3 protein [1] = target: T4, mouse Id3 protein (mouse, UniProt P41133 1-119); assay: Western blot on 10T1/2 whole cell extract
T4 sequence: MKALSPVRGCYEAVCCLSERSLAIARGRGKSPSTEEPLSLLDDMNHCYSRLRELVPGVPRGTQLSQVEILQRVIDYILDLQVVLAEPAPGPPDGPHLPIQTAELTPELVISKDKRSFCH

mouse Id3 protein [2] = target: T4, mouse Id3 protein; assay: immunohistochemistry on embryonic (E13.5) mouse brain sections

Measured: binding

B1: rabbit monoclonal anti-mouse/human Id3, clone #BCH-4/#6-1 (antibody, V domains shown)
VH: QSVEESGGRLVTPGTPLTLTCTASGFSLSNVYIHWVRQAPGKGLEWIGYISDGDTARYATWAKGRFTISKTSSTTVNLKMTSLTTEDTATYFCARQGFNIWGPGTLVTVSL
VL: AVLTQTPSPVSAAVGGTVSISCQSSQSVWNNNWLSWFQQKPGQPPKLLIYETSKLESGVPSRFKGSGSGTQFTLTISDVQCDDAATYYCLGGYWTTSDNNVFGGGTEVVVK
notes: Rabbit IgG from a rabbit hybridoma; also called m/h Id3 MoAb 6-1
binds: human Id3 protein | Human Id3: Histidine

B2: rabbit monoclonal anti-mouse/human Id3, clone #BCH-4/#17-3 (antibody, V domains shown)
VH: QSVEESGGRLVTPGTPLTLTCTASGFSLSNVYIHWVRQAPGKGLEWIGYISDGDTARYATWAKGRFTISKTSSTTVNLKMTSLTTEDTATYFCARQGFNIWGPGTLVTVSL
VL: AVLTQTPSPVSAAVGGTVSISCQSSQSVWNNNWLSWFQQKPGQPPKLLIYETSKLESGVPSRFKGSGSGTQFTLTISDVQCDDAATYYCLGGYWTTSDNNVFGGGTEVVVK
notes: Rabbit IgG from a rabbit hybridoma; also called m/h Id3 MoAb 17-3; BCH-3/#17-3
binds: human Id3 protein | Human Id3: Histidine

B3: rabbit monoclonal anti-mouse/human Id3, clone #BCH-4/#16-1 (antibody, V domains shown)
VH: QSVEESGGRLVTPGTPLTLTCTASGFSLSSYYIHWVRQAPGKALEWIGYISDGGTTYYASWAKGRFTISKTSSTTVDLKMTSLTTEDTATYFCARQGFNIWGPGTLVTVSL
VL: AVLTQTPSPVSAAVGGTVTISCQSSQSVYNNNWLSWFQQKSGQPPKLLIYETSKLESGVPSRFKGSGSGTQFTLTIIDVQCDDAATYYCLGGYWTTSDNNIFGGGTEVVVK
notes: Rabbit IgG from a rabbit hybridoma; also called m/h Id3 MoAb 16-1
binds: human Id3 protein | Mouse Id3: Histidine | Human Id3: Histidine | mouse Id3 protein [1] | mouse Id3 protein [2]

B4: rabbit monoclonal anti-mouse/human Id3, clone #BCH-4/#42-1 (antibody, V domains shown)
VH: QSVEESGGRLVTPGTPLTLTCTASGFSLSSYYIHWVRQAPGKALEWIGYISDGGTTYYASWAKGRFTISKTSSTTVDLKMTSLTTEDTATYFCARQGFNIWGPGTLVTVSL
VL: AVLTQTPSPVSAAVGGTVTISCQSSQSVYNNNWLSWFQQKSGQPPKLLIYETSKLESGVPSRFKGSGSGTQFTLTIIDVQCDDAATYYCLGGYWSTSDNNIFGGGTEVVVK
notes: Rabbit IgG from a rabbit hybridoma; also called m/h Id3 MoAb 42-1
binds: human Id3 protein | Mouse Id3: Histidine | Human Id3: Histidine | mouse Id3 protein [1] | mouse Id3 protein [2]
